The source of these data is patent US12521402B2, “Biomarker and drug combinations for heart failure prediction” (Endothelium Scanning Nanotechnology Limited, priority 2022, dated 2026).

The chains are these.
B1: CAND1 (protein, UniProt Q86VP6 2-1230, looked up)
Cullin-associated …: ASASYHISNLLEKMTSSDKDFRFMATNDLMTELQKDSIKLDDDSERKVVKMILKLLEDKNGEVQNLAVKCLGPLVSKVKEYQVETIVDTLCTNMLSDKEQLRDISSIGLKTVIGELPPASSGSALAANVCKKITGRLTSAIAKQEDVSVQLEALDIMADMLSRQGGLLVNFHPSILTCLLPQLTSPRLAVRKRTIIALGHLVMSCGNIVFVDLIEHLLSELSKNDSMSTTRTYIQCIAAISRQAGHRIGEYLEKIIPLVVKFCNVDDDELREYCIQAFESFVRRCPKEVYPHVSTIINICLKYLTYDPNYNYDDEDEDENAMDADGGDDDDQGSDDEYSDDDDMSWKVRRAAAKCLDAVVSTRHEMLPEFYKTVSPALISRFKEREENVKADVFHAYLSLLKQTRPVQSWLCDPDAMEQGETPLTMLQSQVPNIVKALHKQMKEKSVKTRQCCFNMLTELVNVLPGALTQHIPVLVPGIIFSLNDKSSSSNLKIDALSCLYVILCNHSPQVFHPHVQALVPPVVACVGDPFYKITSEALLVTQQLVKVIRPLDQPSSFDATPYIKDLFTCTIKRLKAADIDQEVKERAISCMGQIICNLGDNLGSDLPNTLQIFLERLKNEITRLTTVKALTLIAGSPLKIDLRPVLGEGVPILASFLRKNQRALKLGTLSALDILIKNYSDSLTAAMIDAVLDELPPLISESDMHVSQMAISFLTTLAKVYPSSLSKISGSILNELIGLVRSPLLQGGALSAMLDFFQALVVTGTNNLGYMDLLRMLTGPVYSQSTALTHKQSYYSIAKCVAALTRACPKEGPAVVGQFIQDVKNSRSTDSIRLLALLSLGEVGHHIDLSGQLELKSVILEAFSSPSEEVKSAASYALGSISVGNLPEYLPFVLQEITSQPKRQYLLLHSLKEIISSASVVGLKPYVENIWALLLKHCECAEEGTRNVVAECLGKLTLIDPETLLPRLKGYLISGSSYARSSVVTAVKFTISDHPQPIDPLLKNCIGDFLKTLEDPDLNVRRVALVTFNSAAHNKPSLIRDLLDTVLPHLYNETKVRKELIREVEMGPFKHTVDDGLDIRKAAFECMYTLLDSCLDRLDIFEFLNHVEDGLKDHYDIKMLTFLMLVRLSTLCPSAVLQRLDRLVEPLRATCTTKVKANSVKQEFEKQDELKRSAMRAVAALLTIPEAEKSPLMSEFQSQISSNPELAAIFESIQKDSSSTNLESMDTS
B2: SIAE (protein, UniProt Q9HAT2 24-523, looked up)
Sialate O-acetylesterase: IGFRFASYINNDMVLQKEPAGAVIWGFGTPGATVTVTLRQGQETIMKKVTSVKAHSDTWMVVLDPMKPGGPFEVMAQQTLEKINFTLRVHDVLFGDVWLCSGQSNMQMTVLQIFNATRELSNTAAYQSVRILSVSPIQAEQELEDLVAVDLQWSKPTSENLGHGYFKYMSAVCWLFGRHLYDTLQYPIGLIASSWGGTPIEAWSSGRSLKACGVPKQGSIPYDSVTGPSKHSVLWNAMIHPLCNMTLKGVVWYQGESNINYNTDLYNCTFPALIEDWRETFHRGSQGQTERFFPFGLVQLSSDLSKKSSDDGFPQIRWHQTADFGYVPNPKMPNTFMAVAMDLCDRDSPFGSIHPRDKQTVAYRLHLGARALAYGEKNLTFEGPLPEKIELLAHKGLLNLTYYQQIQVQKKDNKIFEISCCSDHRCKWLPASMNTVSTQSLTLAIDSCHGTVVALRYAWTTWPCEYKQCPLYHPSSALPAPPFIAFITDQGPGHQSNVAK
B3: HINT2 (protein, UniProt Q9BX68 18-163, looked up)
Adenosine …: VAATGVRGGQVRGAAGVTDGNEVAKAQQATPGGAAPTIFSRILDKSLPADILYEDQQCLVFRDVAPQAPVHFLVIPKKPIPRISQAEEEDQQLLGHLLLVAKQTAKAEGLGDGYRLVINDGKLGAQSVYHLHIHVLGGRQLQWPPG
B4: PDIA3 (protein, UniProt P30101 25-505, looked up)
Protein disulfide-isomerase A3: SDVLELTDDNFESRISDTGSAGLMLVEFFAPWCGHCKRLAPEYEAAATRLKGIVPLAKVDCTANTNTCNKYGVSGYPTLKIFRDGEEAGAYDGPRTADGIVSHLKKQAGPASVPLRTEEEFKKFISDKDASIVGFFDDSFSEAHSEFLKAASNLRDNYRFAHTNVESLVNEYDDNGEGIILFRPSHLTNKFEDKTVAYTEQKMTSGKIKKFIQENIFGICPHMTEDNKDLIQGKDLLIAYYDVDYEKNAKGSNYWRNRVMMVAKKFLDAGHKLNFAVASRKTFSHELSDFGLESTAGEIPVVAIRTAKGEKFVMQEEFSRDGKALERFLQDYFDGNLKRYLKSEPIPESNDGPVKVVVAENFDEIVNNENKDVLIEFYAPWCGHCKNLEPKYKELGEKLSKDPNIVIAKMDATANDVPSPYEVRGFPTIYFSPANKKLNPKKYEGGRELSDFISYLQREATNPPVIQEEKPKKKKKAQEDL
B5: PIPNA (protein, UniProt Q00169 2-270, looked up)
Phosphatidylinositol transfer …: VLLKEYRVILPVSVDEYQVGQLYSVAEASKNETGGGEGVEVLVNEPYEKDGEKGQYTHKIYHLQSKVPTFVRMLAPEGALNIHEKAWNAYPYCRTVITNEYMKEDFLIKIETWHKPDLGTQENVHKLEPEAWKHVEAVYIDIADRSQVLSKDYKAEEDPAKFKSIKTGRGPLGPNWKQELVNQKDCPYMCAYKLVTVKFKWWGLQNKVENFIHKQERRLFTNFHRQLFCWLDKWVDLTMDDIRRMEEETKRQLDEMRQKDPVKGMTADD
B6: NOL12 (protein, UniProt Q9UGY1 1-213, looked up)
Nucleolar protein 12: MGRNKKKKRDGDDRRPRLVLSFDEEKRREYLTGFHKRKVERKKAAIEEIKQRLKEEQRKLREERHQEYLKMLAEREEALEEADELDRLVTAKTESVQYDHPNHTVTVTTISDLDLSGARLLGLTPPEGGAGDRSEEEASSTEKPTKALPRKSRDPLLSQRISSLTASLHAHSRKKVKRKHPRRAQDSKKPPRAPRTSKAQRRRLTGKARHSGE
B7: PRB2 (protein, UniProt P02812 17-416, looked up)
Basic salivary proline-rich …: QNLNEDVSQEESPSLIAGNPQGAPPQGGNKPQGPPSPPGKPQGPPPQGGNQPQGPPPPPGKPQGPPPQGGNKPQGPPPPGKPQGPPPQGDKSRSPRSPPGKPQGPPPQGGNQPQGPPPPPGKPQGPPPQGGNKPQGPPPPGKPQGPPPQGDNKSRSSRSPPGKPQGPPPQGGNQPQGPPPPPGKPQGPPPQGGNKPQGPPPPGKPQGPPPQGDNKSQSARSPPGKPQGPPPQGGNQPQGPPPPPGKPQGPPPQGGNKPQGPPPPGKPQGPPPQGGSKSRSSRSPPGKPQGPPPQGGNQPQGPPPPPGKPQGPPPQGGNKPQGPPPPGKPQGPPPQGGSKSRSARSPPGKPQGPPQQEGNNPQGPPPPAGGNPQQPQAPPAGQPQGPPRPPQGGRPSRPPQ

A short description of the first series: Saliva proteomics: biomarker quantification by mass spectrometry SWATH in participants at risk of heart failure vs controls. Also noted: species or system human. As to conditions: differential expression (fold) between control and at-risk averages, saliva.
With B1, the “Control vs Risk” value was 1.81.
With B2, the “Control vs Risk” value is reported as 1.54.
The same measure, in the same setting: the result for B3 reads 1.72.
On the same count and under the same terms, the result for B4 reads 1.69; that for B5, 1.76.

Still in this series, the particulars now being: differential expression (fold) control vs 'at risk'; printed as larger/smaller average whatever the direction.
For the molecule B6, the “Control vs Risk” value is 4.81.
Same read-out and setting: then B7, with 4.38.

The same series, now with this note: saliva, 'at risk' of heart failure group mean, mass spectrometry SWATH quantification.
As to B6, the AtRisk average was 289,076 ng/ml.
For B7, the AtRisk average is reported as 13,760,720 ng/ml.

Still in this series, the particulars now being: saliva, 'at risk' of heart failure group mean, mass spectrometry SWATH, 20 samples.
As for B1, the AtRisk average is 82,739 ng/ml.
Same read-out and setting: the result for B2 reads 79,650 ng/ml; that for B3, 11,022 ng/ml.
On the same count and under the same terms, then B4, with 6,609,725 ng/ml; and B5, with 107,714 ng/ml.

The series is the same for the next values; noted with them: saliva, control group mean, mass spectrometry SWATH quantification.
Turning to B6, the Control average is given as 60,052 ng/ml.
B7: the Control average is reported as 60,289,539 ng/ml.

Staying with this series, now noted: saliva, control group mean, mass spectrometry SWATH, 20 samples.
As for B1, the Control average is 45,823 ng/ml.
Turning to B2, the Control average is recorded as 122,586 ng/ml.
Turning to B3, the Control average is reported as 6,406 ng/ml.
On to B4, for which the Control average is recorded as 11,140,398 ng/ml.
In the case of B5, the Control average was 61,311 ng/ml.
